Drawing on PubChem BioAssay AID977622 (Broad Institute, 2014), this text covers activity change for 56 molecules.

Structures are written as SMILES. The list shows a part of the results. These are further read-outs of the screen, such as a control signal, another cell line or another target. No call is given for them.

Test [1] can be described thus: wild-type E. coli growth inhibition versus h38 humanized strain – h38 mutant RFP, wild-type GFP, cherry-pick, dose response (AID 977622). Particulars: E. coli mixed culture, 24 h, total growth OD600 at 50 uM.
Test [2] deals with E. coli h38 humanized mutant ribosome RFP fluorescence, mixed culture, 24 h. Described as above. Particulars: h38 mutant RFP at 50 uM.

On to `Cc1ccccc1S(=O)(=O)c1cc2ccccc2nc1N`, for which the activity change in test [1] is -34.7%; in test [2], -8.93%.
The matching figures for `COC(=O)c1c(C)oc(C)c1S(=O)(=O)Nc1ccc(C(C)C)cc1`: -30.6% and 4.46%.
The matching figures for `O=C(NCc1ccc2c(c1)OCO2)C1CCC(=O)N1C1CCCCC1` (configuration not stated): -9.2% and 20.2%.
For `COc1ccccc1NC(=O)N1CCCCN2[C@@H](CO)[C@H](c3ccc(C#Cc4ccccc4)cc3)[C@@H]2C1` the same measures were -41.8% and 84.3%.
As to `CN(C)CCCNc1ccc(-c2cc(Nc3cccc(Cl)c3)ncn2)cn1`, the figures for the activity change in test [1] and in test [2] were -33.2% and -8.06%, respectively.
`C[C@@H]1CCCCO[C@H](CN(C)C(=O)CCCN(C)C)[C@@H](C)CN([C@@H](C)CO)C(=O)c2cc(NC(=O)Nc3cccc4ccccc34)ccc2O1`: the activity change was -14.8% in test [1] and 16.9% in test [2].
The matching figures for `COc1ccc2oc(C(=O)NCc3ccco3)c(C)c2c1`: -50.9% and -20.3%.
The matching figures for `Cc1cc(CNC(=O)c2cc(-c3ccccc3)nc3ccccc23)nn1C`: 3.77% and 23.2%.
The matching figures for `CCC(=O)Nc1sc(Cc2ccc3c(c2)OCO3)c(C)c1C(N)=O`: -4.99% and -7.79%.
With `O=C(C[C@@H]1CC[C@@H]2[C@H](COC[C@H](O)CN2C(=O)Nc2ccc(Cl)cc2)O1)NCc1ccncn1`, the activity change is -73% in test [1] and 6.98% in test [2].
Turning to `CC(C)CC#Cc1ccc2c(c1)O[C@@H](CN(C)Cc1ccccn1)[C@H](C)CN([C@H](C)CO)S2(=O)=O`, the activity change in test [1] was -68.6%; in test [2], 104%.
For `CCN(c1ccccc1)S(=O)(=O)c1ccc(Cl)c(NC(=O)CSc2n[nH]c(N)n2)c1` the same measures were -24% and 33.3%.
`CC(C)(C)S(=O)(=O)Cc1nc(-c2ccc(Cl)c(Cl)c2)cs1`: the activity change in test [1] was -15.6%; in test [2], -30.6%.
Regarding `COc1cc(OC)cc(-c2nc3ccccc3c(=O)n2OC(=O)c2ccc(C)c(C)c2)c1`, the activity change in test [1] is -6.1%.
For `COc1ccccc1N(C1=NCCCS1)S(=O)(=O)c1ccc(C(C)(C)C)cc1`, the activity change in test [1] was -23.7%; in test [2] it was 6.04%.
In the case of `COc1ccc(C(=O)CSc2nc3ccccc3n2CC(=O)c2ccccc2)cc1`, the activity change in test [1] is -36.1%.
Consider `CSc1ccccc1NC(=O)CN(C)CC(=O)c1c(C)[nH]c2ccccc12`, for which the activity change in test [1] is -68.1%; in test [2], -7.23%.
On to `Cc1ccc(S(=O)(=O)Nc2ccc3c(c2)C(=O)N([C@H](C)CO)C[C@@H](C)[C@H](CN(C)C(=O)c2ccccc2)OCCCC[C@@H](C)O3)cc1`, for which the values for the activity change in test [1] and in test [2] were -30.8% and 25%, respectively.
`COc1cccc(C(=O)N2C[C@@H]3[C@H](c4ccccc42)[C@H](CO)N3Cc2ccccc2Cl)c1`: the figures for the activity change in test [1] and in test [2] were -60.2% and 6.98%, respectively.
As to `O=C(O)CC1(CC(=O)Nc2ccc3sccc3c2)CCCCC1`, the figures for the activity change in test [1] and in test [2] were -40.2% and -37.9%, respectively.
As to `O=C(Nc1cccc(Cl)c1)c1ccc(S(=O)(=O)NCC2CCCO2)cc1` (configuration not stated), the activity change in test [1] is -45.8%; in test [2], -51.4%.
For `Cc1ccc(NC(=O)c2c(C)noc2-c2snnc2C)cc1` the same measures were -39.5% and 18.7%.
With `CCN(CC)CCN(C(=O)C1CCCCC1)c1nc2cc3c(cc2s1)OCO3`, the activity change in test [1] was -41.2%.
In the case of `Cc1ccccc1-n1ncc2c1CC(C)(C)CC2NC(=O)CCN1Cc2ccccc2C1=O` (configuration not stated), the activity change is -20.7% in test [1] and -6.18% in test [2].
On to `COc1ccc(CN2C(=O)NC(C)(c3ccc(C)cc3)C2=O)cc1F` (configuration not stated), for which the activity change in test [1] was -40.7%; in test [2], -12%.
For `COC(=O)c1ccc2nc(-c3cccc(Br)c3)c(Cc3ccsc3)n2c1` the same measures were -26.9% and -1.64%.
Turning to `COc1ccccc1C(=O)Nc1ccc2c(c1)nc1n2CCN(C2CCCCC2)C1`, the activity change in test [1] is -39.5%.
For `O=C(c1cc(COc2c(F)cccc2F)on1)N1C[C@H]2CC[C@H]1C2`, the results for the activity change in test [1] and in test [2] were -23% and -8.76%, respectively.
`C=C1SC(Nc2c(C)cccc2C)=NC12CCCCC2`: the activity change in test [1] is -79.8%.
Take `c1ccc(Sc2ncnc3ccccc23)cc1`: the activity change in test [1] is -10.8%; in test [2], -3.52%.
For `O=C(O)CC1(CC(=O)NCc2ccc(-c3cccs3)cc2)CCCCC1` the same measures were -40.4% and -6.5%.
With `C[C@@H]1CCCCO[C@H](CN(C)C(=O)CCCN(C)C)[C@H](C)CN([C@@H](C)CO)C(=O)c2cc(NC(=O)Nc3cccc4ccccc34)ccc2O1`, the activity change is -30.5% in test [1] and -16.9% in test [2].
With `CCn1nc(C(=O)OCc2cccc(S(=O)(=O)N(C)C)c2)c2ccccc2c1=O`, the activity change is -30.9% in test [1] and -28.4% in test [2].
On to `Fc1ccc(Br)cc1SCCc1ccncc1`, for which the values for the activity change in test [1] and in test [2] were -17.9% and -15.7%, respectively.
For `O=C(Nc1cccc(O)c1)c1cc(-c2ccccc2Cl)on1` the same measures were -41.3% and -25.8%.
`C[C@@H]1CN([C@@H](C)CO)C(=O)c2cc(NC(=O)C3CC3)ccc2O[C@H]1CN(C)C(=O)Nc1ccc(C(F)(F)F)cc1`: the activity change in test [1] was -10.8%; in test [2], 1.99%.
In the case of `CCOC(=O)c1ccoc1CN1CCN(S(=O)(=O)c2ccc(C)c(C)c2)CC1`, in test [1], the activity change is -28.3%.
With `COc1cccc(C(NC(C)=O)c2nc(-c3ccccc3OC)cs2)c1` (configuration not stated), the results for the activity change in test [1] and in test [2] were -34.2% and 5.86%, respectively.
As to `CCSc1nc2ccccc2c(=O)n1Cc1ccc(F)cc1`, the activity change in test [1] was -42.2%; in test [2] it was 35.6%.
The matching figures for `Clc1ccccc1-c1nnc2sc(CCc3ccccc3)nn12`: -69.1% and 30.8%.
The matching figures for `CCN(CC)C(=O)c1sc2nc(-c3ccccc3)ccc2c1N`: -59.3% and -0.248%.
With `COc1ccccc1Cn1c(=S)[nH]c2ccc(F)cc2c1=O`, the activity change in test [1] is -16.2%.
As to `Cc1ccccc1OS(=O)(=O)c1cccc([N+](=O)[O-])c1`, the values for the activity change in test [1] and in test [2] were -32.4% and 7.17%, respectively.
For `Cc1nn(-c2ccc(N3CCCCC3)nn2)c(C)c1CCC(=O)Nc1ccc(F)cc1` the same measures were -33% and -21.3%.
Take `COc1ccc2c(c1)c1ncn(Cc3ccccn3)c(=O)c1n2C`: the activity change in test [2] is 1.28%.
With `Cc1ccc2oc(C(=O)N(CCO)Cc3ccccc3)c(C)c2c1`, the activity change in test [1] is -57.5%; in test [2], 4.93%.
Consider `COC(=O)C[C@H]1C[C@@H]2c3cc(NC(=O)Nc4ccc(C(F)(F)F)cc4)ccc3O[C@@H]2[C@H](CO)O1`, for which the activity change in test [1] is -34%; in test [2], -14.5%.
The matching figures for `CC(=O)Nc1ccc(OCc2nnc(-c3ccccc3)o2)cc1`: -23.2% and 19.2%.
For `O=C(CCc1nc2ccccc2s1)OCC(=O)c1ccc[nH]1` the same measures were -28.9% and 4.21%.
With `O=C(O)c1ccc(Oc2ccc([N+](=O)[O-])cc2)c([N+](=O)[O-])c1`, the figures for the activity change in test [1] and in test [2] were -17.3% and 57.6%, respectively.
For `CC(=O)Nc1ccc(/C=C/c2ccc3cccc([N+](=O)[O-])c3n2)cc1`, the activity change was -45.5% in test [1] and -14.9% in test [2].
For `N#Cc1ccsc1NC(=O)CSc1nnc(NC2CC2)s1` the same measures were -32.3% and -17.6%.
Consider `COc1ccc(CC(=O)Nc2nc(-c3cc(OC)ccc3OC)cs2)cc1`, for which, in test [1], the activity change was -49.8%.
In the case of `CCCc1nc2cc(C)c(Br)c(C)n2c1CC1CCCCC1`, the activity change in test [1] was -65.6%; in test [2], -9.07%.
On to `c1ccc(-c2sc3ccccc3c2-c2ccc(OCCN3CCCCC3)cc2)cc1`, for which the activity change in test [2] is 4.12%.
Consider `Cc1cccc(S(=O)(=O)Nc2ccc(-c3cn4ccccc4n3)cc2)c1`, for which the activity change is -75.6% in test [1] and -5.78% in test [2].
